# Measured values from PubChem BioAssay AID1347426 (Functional Genomics Laboratory (NCATS/FGL), 2020).
# In all, about 31,000 sequences went through this assay and about 1,400 (4.5%) were called active.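 The calls were made as follows: active = median seed-adjusted z-score above 1 or below -1; inactive = the rest.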 The list shows a part of the results.
# Assay: Novel Modifiers of Survival Motor Neuron (SMN) Protein: Gene Identification via Genome-wide siRNA Screen;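 also: luminescence tracks full-length SMN protein made from the SMN2 reporter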
# Details: HEK293T SMN2-luciferase reporter, siRNA knockdown, 72 h; actives lie on both sides
# How it was run: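 Luciferase signal, proportional to full-length SMN made from an SMN2 cDNA reporter in stable HEK293T cells, was read 72 h after siRNA reverse transfection. Values were expressed as MAD scores after non-targeting-control normalization and log10 conversion; seed analysis flagged off-targets.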
row,Sequence,median seed-adjusted z-score
1,GAGGUGAUCUCAAAGCAAUTT against LIAS,inactive: -0.31
2,GGAGAUCAUAGCAAACUUUTT against CLDN20,inactive: -0.00173
3,UUGUGGAUGUUGAACCUAATT against SNRPD1,active: -2.97
4,GGAAAAAUCUAAGAAGCAATT against ZC3H11A,inactive: -0.137
5,CGAUAUCUCUGUGUGCGAATT against COX6B1,inactive: -0.706
6,GAGUAUACCUCGGAGCUGATT against ISYNA1,inactive: 0
7,GUCCACAACAGGAAACAUATT against ZBTB48,inactive: 0.0461
8,GGAUGGAACUUGGUUAACATT against SP110,inactive: -0.788
9,GAGCCUCCGUCUCACCUAUTT against VASN,inactive: 0.213
10,GGACCAAAAUGAUACGGGATT against PLA2R1,inactive: -0.0304
11,GUCUGCAAGUGGAUGAUGATT against PSMD9,inactive: 0.266
12,CGUCAACUCGGAAACGCAATT against ZNF385D,inactive: -0.338
13,CAGCUAAGAUUUAUCAGAATT against NR3C2,inactive: -0.0918
14,GCUACCUUUUAGUUUACUATT against SNX4,inactive: -0.144
15,GUCGCUUCCAGAUUGCUCATT against TK1,inactive: -0.0562
16,AGGUGGAUGUGAACACUGATT against SDF4,inactive: -0.422
17,GGCCUGACCUCAUUGACUATT against ACTN2,inactive: 0.165
18,CAUUCCAUCGUGUACCUCATT against FKBP4,inactive: 0.283
19,GGAGUGCUACCACAGUAAUTT against LPAL2,inactive: 0.7
20,GGUUCUUCCCGUUGUCUUUTT against TOMM22,inactive: 0.486
21,GCCUUGGGUUUGACAAACATT against MTHFS,inactive: 0.166
22,AAAACCCAGUCGUCACCAATT against RNF113B,inactive: -0.228

row,Sequence,median seed-adjusted z-score
1,GCAUGAGGAAGGACGGUUUTT against IL16,inactive: -0.471
2,CCAUGGAUGUUGUGAAACUTT against CSF3R,inactive: -0.491
3,GAGAGAUCUUAGGACUAUUTT against ABCA5,inactive: -0.376
4,CGGGAGAAAAUGACUCAAATT against ACTA2,inactive: 0.739
5,GUGAGGAUAUGGAACCGCATT against CRYM,inactive: -0.373
6,CCACUAUAAAAGUCUUUAATT against PLXNC1,inactive: -0.0792
7,UCGGAAAUGUUAAACUUUATT against BSPRY,inactive: -0.399
8,AGGUAAAGCGGUUGAAUGATT against RABEP2,inactive: -0.0546
9,CAUACGUACUCCUCCAAAATT against MAP2,inactive: 0.238
10,AGAAUAAACUGGCAGCUCATT against GP9,inactive: -0.88
11,CGCACCAUCUACUCCAGUUTT against DLX2,inactive: -0.527
12,CAACCAAUGUGCGUCUGAATT against CHRNA1,inactive: -0.32
13,GUAUCGGUCUUUCAACUAUTT against NMBR,inactive: 0.32
14,UCAUCCCACUUUGCCCUGATT against OXER1,inactive: -0.471
15,GGGACCAUCCUGUUCUUCATT against KCNK12,active: 1.04
16,GGUUACUGAUGAACGAGUATT against FAP,inactive: -0.258
17,CAUUCUAUGUUAAGUCAAATT against ZNF37A,inactive: -0.0585
18,AGAUGUUAGGGACACCAGATT against RILP,inactive: 0.503
19,CGAGGAAUGUACUAGCAAUTT against XIRP2,inactive: -0.404
20,CAGUGGAAUUGUUGCCUUUTT against SLC39A7,inactive: 0.0554
21,UGAUGGGCAAGUACACGUATT against KCNIP2,inactive: 0.415
22,CCACCUGUAAGAACAGAAATT against SFRS5,inactive: 0.346

row,Sequence,median seed-adjusted z-score
1,CUACGGCUUUGGAGAUAUATT against RECQL,inactive: -0.905
2,GCAGUUCCCUUAGAGCUAGTT against MAP4,active: 1.67
3,CUCAGAUACUAUUACAACATT against ETV3,inactive: -0.039
4,GAAGCUAAGUUCAUAGGUUTT against GRM3,inactive: -0.401
5,GGCUCUAUGUCGUAGAAAATT against MPZL1,inactive: 0.376
6,CCUCAGCAAUCAGCAGACATT against FES,inactive: 0.402
7,GCACAUCGCAGAUCAAAGUTT against PIK3R5,inactive: 0.799
8,GAGUGGACAUCAUAGAGAATT against GSTM3,inactive: -0.66
9,GCCCAGGUCUGUACAGAUATT against ROBO4,inactive: -0.431
10,GAACUGUCACUGUGAGAUATT against EBI3,inactive: -0.206
11,GCAUAGAGGAGAUCUGUGATT against PROC,inactive: -0.228
12,GCAUCUACUGACUUGAUUUTT against MLF2,inactive: -0.312
13,GGUGAAGAAUACCAGCAAATT against ACYP2,inactive: 0.286
14,GAAUGGAUUCUGACCUUAUTT against MTO1,inactive: -0.0252
15,GAAUGCCUUUCAUGAGAAUTT against CYP4A22,inactive: -0.479
16,GUACUGUAGAGAAAGCGUATT against ZNF606,inactive: 0.118
17,GCACUUGGAUCGCAUGAAATT against AHCYL1,inactive: 0
18,CUAUUACAAUUCCUCGGAATT against TRIM11,inactive: -0.251
19,CCAAUACAGGGAUCCUAUATT against PCDHGA4,inactive: 0.0698
20,CCUGCCCAAGAGUACCUUUTT against EEF1G,inactive: -0.206
21,CAUGCUCUAUUGCUCAGUATT against ALK,inactive: 0.0139
22,CAUCUUCACGGUCAACAAATT against TRPM4,inactive: 0.0519

row,Sequence,median seed-adjusted z-score
1,GGAUAGCAAAACAACUAGATT against RB1,inactive: 0.49
2,GCUAUUUACUCAGUCCGUUTT against HELZ,inactive: 0.0778
3,CUCCCUCGGUUAUAAAGAUTT against SLC4A5,active: 1.3
4,GGCUAGAAGUCAGCUAUCATT against PPP1R15B,inactive: -0.407
5,GAACUGAUGAAGGUAUUAATT against PARVA,inactive: 0.0852
6,CAAUCGCUAUCAACCGUUATT against GPR50,inactive: -0.0348
7,GUCAUCAACGGAAACAUAATT against EIF3G,inactive: -0.198
8,GAAAAAGCGUGAAGUCAUATT against GABRA5,inactive: 0
9,GGGAUUCAAAUGAAAGUGATT against TBC1D22A,inactive: -0.00192
10,CCAUAACGGUGGAUGAGUATT against MPPED2,inactive: 0.418
11,CCGUCAUGCUGAUACUCUUTT against SOAT2,inactive: 0.612
12,GGUAUAAUCUUCGACUCAATT against GRIK2,inactive: 0.00242
13,CUACAGAAGUACAAUCAUUTT against UGP2,inactive: 0.0766
14,GCAGGCGUCUAAAUACUUUTT against DLC1,inactive: -0.0296
15,CAGUUCGUGUCAACAGGAATT against LYPLA1,inactive: 0
16,GAGUACGACUGGAACUUAATT against CALR3,inactive: -0.0828
17,GCUACUACAUGAUUGGUGATT against NNMT,inactive: -0.095
18,GCACGUUUCCUAAUUGAUATT against CPSF2,inactive: 0.0263
19,GGCAGUUAAUGGAACAAUUTT against MTMR7,inactive: -0.207
20,GCUGUGAUCUCAUGGAUCATT against KLHL3,inactive: -0.237
21,CCUACAAGCUGGACAACAATT against CPNE6,inactive: -0.528
22,CACUUGAACAAGAACCAGATT against PCDH17,inactive: 0.451

# Shown as tab-separated lines: entries from further up.
row	Sequence	median seed-adjusted z-score
5	CGAUAUCUCUGUGUGCGAATT against COX6B1	inactive: -0.706
6	GAGUAUACCUCGGAGCUGATT against ISYNA1	inactive: 0

# Quoted from the listing:
# median seed-adjusted z-score, GAACUGAUGAAGGUAUUAATT against PARVA reads inactive: 0.0852
# median seed-adjusted z-score, CAAUCGCUAUCAACCGUUATT against GPR50 reads inactive: -0.0348

# Next part

row,Sequence,median seed-adjusted z-score
1,CCAACCACGCUAUAGUUCATT against BMP5,inactive: 0.0733
2,GGCUAUCCACGUGAAGAAATT against GABRG2,inactive: -0.479
3,GCCUCAAUCAGUAUUCAUATT against SERPINH1,inactive: 0.186
4,GCAUUUCAAGGGAUCCGUATT against LRRTM4,inactive: 0
5,GACGAACCCUUAGUGCUAATT against F9,inactive: 0.332
6,AAAUGUCCCGAAUCGUAUUTT against GABRA5,inactive: 0
7,GCAUCAGCGCGUUCAUUCATT against ZNF623,inactive: 0.272
8,GGAUCACCAGGAAAGAGUATT against ACTR5,inactive: -0.376
9,CCACUAUUGUCAGCCUGCATT against ID2,inactive: 0.783
10,GACCUUCAAGAUAGACAUUTT against RAD23B,inactive: 0.639
11,GCUCUUCGAUCUGAUUGAATT against CLK2,inactive: -0.0591
12,GUAUCUGCAAUUAUCCAAATT against KCNH7,inactive: 0.0639
13,ACAUCGUGCUAAACUCUCATT against BCL6B,inactive: 0
14,UAUGGGCUCUUGAACCAAATT against MTNR1B,inactive: -0.393
15,GUAUGAUUAUGCUGGGAAATT against COX7A2L,inactive: 0
16,GGCUACAACAUGACUCGUATT against FZD10,inactive: -0.226
17,GGUAUACAAGGAAAGGUUATT against EIF4E,inactive: -0.404
18,GGCUGAAGAGCUACGAGAATT against POR,inactive: 0.189
19,GCUCAUACUCUACCACCUATT against SLC1A5,inactive: -0.104
20,AGACAAGUAUGUGAGGAAUTT against BTN2A2,inactive: -0.0599
